# The full ranking holds about 1,100 compounds; the median of “Renilla luciferase signal (cell health) relative to plate median” is about 0.97, and the highest 2% start at about 1.6. This is a selection; strong and weak results do not stand in their true shares.
# System: HEK293T (UBE3A T485A transfected, BAR Wnt reporter)
# Assay: Renilla luciferase signal (cell health) relative to plate median (fold (linear ratio)); higher = higher Renilla signal
# Details: 24 h
# Method in brief: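 Using Fugene 6, HEK293T cells in white 384-well plates (4500 cells/well; DMEM, 10% FBS, 37°C, 5% CO2) were transfected with a BAR firefly luciferase Wnt reporter, TK-Renilla and an expression plasmid. After four hours, robots dosed the chemicals at 0.01–100 uM, and a Dual-Glo luciferase readout followed 24 h later. Per-plate median-centred firefly/Renilla ratios gave Wnt activity, while per-plate median-centred raw Renilla signals gave cell health. Four biological replicates were averaged.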
Compound,Renilla luciferase signal (concentration: 0.01 uM),Renilla luciferase signal (concentration: 0.1 uM),Renilla luciferase signal (concentration: 1 uM),Renilla luciferase signal (concentration: 10 uM),Renilla luciferase signal (concentration: 100 uM)
CO/N=C(/C1=NOCCO1)c1ccccc1Oc1ncnc(Oc2ccccc2Cl)c1F [Fluoxastrobin],0.875,0.941,1.05,0.383,1.63
c1ccc2c(c1)-c1cccc3cccc-2c13 [Fluoranthene],,0.945,0.934,0.905,1.05
COCC(C)N(C(=O)CCl)c1c(C)csc1C (stereo not drawn) [Dimethenamid],0.861,0.872,0.915,0.762,0.762
N#Cc1c[nH]cc1-c1cccc2c1OC(F)(F)O2 [Fludioxonil],1.03,1.15,1.07,1.12,1.28
Cc1ccc(-c2c(Cl)nc(C#N)n2S(=O)(=O)N(C)C)cc1 [Cyazofamid],0.803,1.04,1.08,0.959,0.0232
"Nn1cnnc1 [4-Amino-1,2,4-triazole]",,0.956,0.961,1.09,1.21
CC1(C)CON(Cc2ccccc2Cl)C1=O [Clomazone],1.23,1.14,1.02,1.06,1.4
C1CC2OC2CC1C1CO1 (stereo not drawn) [4-Vinyl-1-cyclohexene dioxide],,0.978,0.971,0.856,0.459
Nc1ccc(-c2ccc(N)cc2)cc1 [Benzidine],,0.823,0.83,0.856,1.23
"Cc1ccc(N)c(N)c1 [3,4-Diaminotoluene]",,1.06,0.86,0.793,0.0346
"Cc1cccc(N)c1N [2,3-Diaminotoluene]",,0.728,0.75,0.772,0.198
"Cc1ccc([N+](=O)[O-])cc1C [1,2-Dimethyl-4-nitrobenzene]",,0.986,1.01,0.915,1.19
Cc1ccn2nc(S(=O)(=O)Nc3c(F)cccc3F)nc2n1 [Flumetsulam],0.963,1.07,0.959,1.07,1.67
O=[N+]([O-])c1cc(C(F)(F)F)c(Cl)c([N+](=O)[O-])c1Nc1ncc(C(F)(F)F)cc1Cl [Fluazinam],1.43,1.02,1.08,0.363,0.0145
CCNS(=O)(=O)C(F)(F)C(F)(F)C(F)(F)C(F)(F)C(F)(F)C(F)(F)C(F)(F)C(F)(F)F [Sulfluramid],,0.9,0.603,0.698,0.643
CC(C)OC(=O)Nc1cccc(Cl)c1 [Chlorpropham],0.728,0.618,0.828,0.81,0.766

Compound,Renilla luciferase signal (concentration: 0.01 uM),Renilla luciferase signal (concentration: 0.1 uM),Renilla luciferase signal (concentration: 1 uM),Renilla luciferase signal (concentration: 10 uM),Renilla luciferase signal (concentration: 100 uM)
CCC(C)C1OC2(C=CC1C)CC1CC(CC=C(C)C(OC3CC(OC)C(OC4CC(OC)C([NH2+]C)C(C)O4)C(C)O3)C(C)C=CC=C3COC4C(O)C(C)=CC(C(=O)O1)C34O)O2.O=C([O-])c1ccccc1 (stereo not drawn) [Emamectin benzoate],1.02,1.08,0.877,0.0929,0.0231
CC(C)(C)OOC(C)(C)C [Di-tert-butyl peroxide],,1.07,0.922,1.09,1.12
"CCN(CC)c1ccccc1 [N,N-Diethylaniline]",,1.07,1.06,1.09,1.47
CO/C=C(/C(=O)OC)c1ccccc1Oc1cc(Oc2ccccc2C#N)ncn1 [Azoxystrobin],0.863,0.878,0.965,0.721,0.326
N#Cc1cc(Br)c(O)c(Br)c1 [Bromoxynil],1.21,1.25,1.01,1.04,0.148
CN(C)C(=O)Cl [Dimethylcarbamoyl chloride],,1.04,1.06,1.09,1.37
CCOc1cc(Oc2ccc(C(F)(F)F)cc2Cl)ccc1[N+](=O)[O-] [Oxyfluorfen],0.706,0.749,0.853,0.78,0.248
O=C(O)C1C(C(=O)O)C2(Cl)C(Cl)=C(Cl)C1(Cl)C2(Cl)Cl (stereo not drawn) [Chlorendic acid],,0.994,0.911,0.965,0.955
Cc1ccc([N+](=O)[O-])cc1 [4-Nitrotoluene],,0.29,0.237,0.173,0.391
Cn1cc(-c2ccccc2)c(=O)c(-c2cccc(C(F)(F)F)c2)c1 [Fluridone],,0.931,0.971,1.03,0.667
CCCCCCCc1ccc(O)cc1 [4-Heptylphenol],,1.21,1.2,1.24,1.33
Oc1cc(Cl)ccc1Oc1ccc(Cl)cc1Cl [Triclosan],0.941,0.922,0.956,0.911,0.083
CS/C(C)=N/OC(=O)N(C)SN(C)C(=O)O/N=C(\C)SC [Thiodicarb],1,0.646,0.895,0.91,0.0128
CCC(C)c1ccc(O)cc1 (stereo not drawn) [4-(Butan-2-yl)phenol],,1.03,1.04,0.967,1.21
CC(C)(C)c1ccccc1O [2-tert-Butylphenol],,0.823,0.913,0.724,0.378

# Given with bars between the fields: part of the list above.
Compound | Renilla luciferase signal (concentration: 0.01 uM) | Renilla luciferase signal (concentration: 0.1 uM) | Renilla luciferase signal (concentration: 1 uM) | Renilla luciferase signal (concentration: 10 uM) | Renilla luciferase signal (concentration: 100 uM)
O=C(O)C1C(C(=O)O)C2(Cl)C(Cl)=C(Cl)C1(Cl)C2(Cl)Cl (stereo not drawn) [Chlorendic acid] |  | 0.994 | 0.911 | 0.965 | 0.955
Cn1cc(-c2ccccc2)c(=O)c(-c2cccc(C(F)(F)F)c2)c1 [Fluridone] |  | 0.931 | 0.971 | 1.03 | 0.667
